Measured values from US8415469B2, “Compounds and methods for kinase modulation, and indications therefor” (Plexxikon Inc., priority 2005, dated 2013).
Some results were stated once for a whole list of compounds, not compound by compound.

Amino acid sequences for entries named in this document (tags omitted). Chains listed by the source or under a name are the forms on record and can include a tag or linker.
UniProt P10721, with tags, fused parts or gaps: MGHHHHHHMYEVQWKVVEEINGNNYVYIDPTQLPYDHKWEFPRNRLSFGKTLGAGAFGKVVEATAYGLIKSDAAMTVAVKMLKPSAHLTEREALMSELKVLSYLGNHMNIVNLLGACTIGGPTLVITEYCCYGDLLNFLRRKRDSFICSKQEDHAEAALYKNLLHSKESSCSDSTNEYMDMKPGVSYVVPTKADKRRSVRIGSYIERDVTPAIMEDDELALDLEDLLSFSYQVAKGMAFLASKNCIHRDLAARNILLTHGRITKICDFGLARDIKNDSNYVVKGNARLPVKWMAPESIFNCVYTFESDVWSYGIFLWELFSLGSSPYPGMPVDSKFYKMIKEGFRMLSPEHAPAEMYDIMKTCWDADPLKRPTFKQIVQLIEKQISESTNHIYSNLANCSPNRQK

Target: T1, Kit (Homo sapiens, UniProt P10721)
T1 construct: P1332.N6 BI PTP KIT M552-K948-X COD; His6 (N); made in house; host or cells: E. coli (PTP1B co-expressed)
Assay: AlphaScreen kinase assay, Kit
Type: biochemical
Conditions: read-out: IC50, activity toward kinase Kit

Structure (SMILES) | IC50 [µM]
COc1ccnc2[nH]cc(Cc3ccc(NCc4ccc(C(F)(F)F)cc4)nc3)c12 [Compound P-1110] | ≤ 10
Cc1nc(NCc2ccc(C(F)(F)F)cc2)ccc1Cc1c[nH]c2ncccc12 [Compound P-1112] | ≤ 10
Cc1nc(NCc2ccc(Cl)cc2)ccc1Cc1c[nH]c2ncccc12 [Compound P-0927] | ≤ 10
